Results deposited as PubChem BioAssay AID1671195 (Yale University, 2021)
In all, the deposit lists about 22,000 reagents; shown is an unselected part. Of all reagents, about 1,510 (6.9%) were called active. 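Active includes knockdowns raising or lowering LDL uptake; positive z-scores mean more uptake, negative mean less.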

Purpose: 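Regulators of LDL receptor activity judged by labelled LDL uptake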 (primary screen)
Cells: human Huh7 hepatoma cells
Reagent: siRNA pool against human genes, 18 nM
Timing: about 2 to 2.5 days of knockdown, then 8 h LDL uptake
Treatment: DiI-labelled LDL at 30 µg/ml for 8 h, in lipoprotein-deficient serum medium
Measured: 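Fluorescent LDL signal imaged in cells, scaled to the plate median, robust z-score for each replicate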
Direction: robust z-score: higher = more LDL uptake after knockdown
Rule for the call: 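Active when two or more replicates show a robust z-score above 2 or below -2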

TAS2R50 (taste 2 receptor member 50) — robust z-score, replicate 1 = 0.182; robust z-score, replicate 2 = 0.618; robust z-score, replicate 3 = 0.646; Call = inactive
TIGD1 (tigger transposable element derived 1) — robust z-score, replicate 1 = -0.403; robust z-score, replicate 2 = 0.301; robust z-score, replicate 3 = -1.28; Call = inactive
LOC390738 (retired record) — robust z-score, replicate 1 = 0.504; robust z-score, replicate 2 = -0.017; robust z-score, replicate 3 = -0.0232; Call = inactive
SEPTIN7 (septin 7) — robust z-score, replicate 1 = -0.665; robust z-score, replicate 2 = 0.146; robust z-score, replicate 3 = -0.00189; Call = inactive
TMEM45B (transmembrane protein 45B) — robust z-score, replicate 1 = 1.07; robust z-score, replicate 2 = 0.287; robust z-score, replicate 3 = -0.388; Call = inactive
LOC441388 (retired record) — robust z-score, replicate 1 = 1.13; robust z-score, replicate 2 = 0.443; robust z-score, replicate 3 = 0.648; Call = inactive
NUDT16L2P (nudix hydrolase 16 like 2, pseudogene) — robust z-score, replicate 1 = 0.786; robust z-score, replicate 2 = -0.357; robust z-score, replicate 3 = 0.718; Call = inactive
PWWP3A (PWWP domain containing 3A, DNA repair factor) — robust z-score, replicate 1 = 0.0838; robust z-score, replicate 2 = -0.347; robust z-score, replicate 3 = -0.513; Call = inactive
WIPF2 (WAS/WASL interacting protein family member 2) — robust z-score, replicate 1 = -0.575; robust z-score, replicate 2 = -0.938; robust z-score, replicate 3 = -0.344; Call = inactive
FGF21 (fibroblast growth factor 21) — robust z-score, replicate 1 = 0.511; robust z-score, replicate 2 = 0.442; robust z-score, replicate 3 = 0.00409; Call = inactive

In a second layout: results already given
| gene | robust z-score, replicate 1 | robust z-score, replicate 2 | robust z-score, replicate 3 | Call |
| --- | --- | --- | --- | --- |
| TMEM45B (transmembrane protein 45B) | 1.07 | 0.287 | -0.388 | inactive |
| LOC441388 (retired record) | 1.13 | 0.443 | 0.648 | inactive |
| NUDT16L2P (nudix hydrolase 16 like 2, pseudogene) | 0.786 | -0.357 | 0.718 | inactive |
| PWWP3A (PWWP domain containing 3A, DNA repair factor) | 0.0838 | -0.347 | -0.513 | inactive |

Next entries:
PLN (phospholamban) — robust z-score, replicate 1 = 0.432; robust z-score, replicate 2 = -0.46; robust z-score, replicate 3 = 0.0307; Call = inactive
LOC440477 (retired record) — robust z-score, replicate 1 = -0.535; robust z-score, replicate 2 = -0.683; robust z-score, replicate 3 = -0.893; Call = inactive
VEZF1 (vascular endothelial zinc finger 1) — robust z-score, replicate 1 = -0.237; robust z-score, replicate 2 = -0.396; robust z-score, replicate 3 = -0.173; Call = inactive
GPSM2 (G protein signaling modulator 2) — robust z-score, replicate 1 = -0.672; robust z-score, replicate 2 = -0.531; robust z-score, replicate 3 = -0.244; Call = inactive
DOC2GP (double C2 domain gamma, pseudogene) — robust z-score, replicate 1 = -0.714; robust z-score, replicate 2 = -0.548; robust z-score, replicate 3 = -1.05; Call = inactive
NDUFA13 (NADH:ubiquinone oxidoreductase subunit A13) — robust z-score, replicate 1 = 0.908; robust z-score, replicate 2 = -0.0306; robust z-score, replicate 3 = -1.65; Call = inactive
TDG (thymine DNA glycosylase) — robust z-score, replicate 1 = -1.22; robust z-score, replicate 2 = -0.642; robust z-score, replicate 3 = -0.933; Call = inactive
GBP1 (guanylate binding protein 1) — robust z-score, replicate 1 = -1.34; robust z-score, replicate 2 = -1.28; robust z-score, replicate 3 = -1.25; Call = inactive
KRTAP3-3 (keratin associated protein 3-3) — robust z-score, replicate 1 = 0.752; robust z-score, replicate 2 = 0.323; robust z-score, replicate 3 = 0.436; Call = inactive
PENK (proenkephalin) — robust z-score, replicate 1 = 1.3; robust z-score, replicate 2 = 1.24; robust z-score, replicate 3 = 1.05; Call = inactive
PGAM1P8 (phosphoglycerate mutase 1 pseudogene 8) — robust z-score, replicate 1 = 0.655; robust z-score, replicate 2 = 0.0594; robust z-score, replicate 3 = 0.408; Call = inactive
RUSF1 (RUS family member 1) — robust z-score, replicate 1 = -0.284; robust z-score, replicate 2 = -0.237; robust z-score, replicate 3 = -0.426; Call = inactive
RBM15-AS1 (RBM15 antisense RNA 1) — robust z-score, replicate 1 = -0.978; robust z-score, replicate 2 = -0.312; robust z-score, replicate 3 = -0.606; Call = inactive
LOC441164 (retired record) — robust z-score, replicate 1 = 1.45; robust z-score, replicate 2 = 1.66; robust z-score, replicate 3 = 1.31; Call = inactive
